This note sets out measurements from PMC6504876, “TFIIE orchestrates the recruitment of the TFIIH kinase module at promoter before release during transcription” (Nature Communications, 2019).

Chains of the proteins cited; added tags and fusions are not shown. Lines headed by an entry give the natural chain unless they say otherwise; changes in a name come on top.
UniProt P50613: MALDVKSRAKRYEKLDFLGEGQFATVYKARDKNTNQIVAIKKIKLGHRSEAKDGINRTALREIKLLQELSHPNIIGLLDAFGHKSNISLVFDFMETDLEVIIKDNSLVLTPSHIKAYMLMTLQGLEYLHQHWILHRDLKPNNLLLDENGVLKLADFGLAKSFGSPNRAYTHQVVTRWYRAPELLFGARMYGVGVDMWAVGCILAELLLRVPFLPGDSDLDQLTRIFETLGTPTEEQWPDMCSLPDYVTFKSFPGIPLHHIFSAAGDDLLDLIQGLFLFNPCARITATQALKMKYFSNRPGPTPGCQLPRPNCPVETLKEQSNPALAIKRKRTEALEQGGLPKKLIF

The test concerns the target CAK, the kinase module of TFIIH (CDK7, MAT1, Cyclin H) (UniProt P50613). Put plainly: co-IP; Supplementary Fig. 4, legend not shown; the methods describe only co-immunoprecipitation of purified factors on protein G magnetic beads, washes at 150 or 500 mM KCl.

These are yes or no findings as the source states them, for the method shown. Binding seen in cells or lysates may run through a third protein. Some results given as binding are weak or reduced against the parent protein; the word gives no strength.

B1: His-TFIIEβ/WT (natural protein, UniProt P29084 1-291, looked up)
chain: MDPSLLRERELFKKRALSTPVVEKRSASSESSSSSSKKKKTKVEHGGSSGSKQNSDHSNGSFNLKALSGSSGYKFGVLAKIVNYMKTRHQRGDTHPLTLDEILDETQHLDIGLKQKQWLMTEALVNNPKIEVIDGKYAFKPKYNVRDKKALLRLLDQHDQRGLGGILLEDIEEALPNSQKAVKALGDQILFVNRPDKKKILFFNDKSCQFSVDEEFQKLWRSVTVDSMDEEKIEEYLKRQGISSMQESGPKKVAPIQRRKKPASQKKRRFKTHNEHLAGVLKDYSDITSSK
notes: TFIIEβ, the β subunit of the general transcription factor TFIIE, encoded by GTF2E2; also called rIIEβ/WT; the β subunit of rIIEαβ/WT; source: E. coli, purified; alone or co-produced with rIIEα/WT
For B1, the binding entry is on record as “binds”.
